Experimental data: PubChem BioAssay AID652259 (Drosophila RNAi Screening Center, 2013)
The screen tested about 22,000 reagents; below is an unselected part of those that have a named target and a result. Of all reagents, 233 (1.1%) are marked active. 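Light values are raw, unnormalised plate reads; the ratio scores behind the reporter calls were not deposited.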 No sequences are given here. Not stated in the record: the amount of reagent, the time to read-out, the dose of the treatment.

- Purpose: 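Genome-wide hunt for genes that control Wingless pathway activity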 (primary screen)
- Cell system: Drosophila clone 8 imaginal disc epithelial cells
- Reagents: long dsRNA against Drosophila genes
- Challenge: pathway stimulated by co-transfected Wingless expression plasmid
- Measured: 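Dual luciferase reads per well after Wingless plasmid stimulation: reporter firefly light and Renilla control light; activity is firefly divided by Renilla, a ratio not deposited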
- Reading the numbers: firefly reporter light: higher = more Wg reporter light, before normalisation; Renilla control light: higher = more transfected or surviving cells
- Call rule: 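Strong candidates differ from their plate mean by at least two out of four per-plate statistical tests; weak candidates meet just one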
- Calls: active = candidate regulator (raises or lowers reporter); inactive = not a candidate

Lcp2 [DRSC07456]
- firefly reporter light, replicate 1: 2833
- firefly reporter light, replicate 2: 5094
- Renilla control light, replicate 1: 936
- Renilla control light, replicate 2: 1552
- call: inactive

Rpn2 [DRSC16839]
- firefly reporter light, replicate 1: 1465
- firefly reporter light, replicate 2: 3206
- Renilla control light, replicate 1: 475
- Renilla control light, replicate 2: 1273
- call: inactive

Larp7 [DRSC18798]
- firefly reporter light, replicate 1: 13718
- Renilla control light, replicate 1: 8681
- call: inactive

CG17292 [DRSC02594]
- firefly reporter light, replicate 1: 11563
- Renilla control light, replicate 1: 5494
- call: inactive

rpk [DRSC12386]
- firefly reporter light, replicate 1: 10768
- Renilla control light, replicate 1: 3339
- call: inactive

rpk [DRSC21656]
- firefly reporter light, replicate 1: 3.92e5
- firefly reporter light, replicate 2: 3.91e5
- Renilla control light, replicate 1: 1.86e5
- Renilla control light, replicate 2: 1.65e5
- call: inactive

AIMP3 [DRSC04500]
- firefly reporter light, replicate 1: 3601
- firefly reporter light, replicate 2: 7607
- Renilla control light, replicate 1: 624
- Renilla control light, replicate 2: 2604
- call: inactive

Nop17l [DRSC06556]
- firefly reporter light, replicate 1: 3937
- Renilla control light, replicate 1: 1730
- call: inactive

Moca-cyp [DRSC15364]
- firefly reporter light, replicate 1: 4918
- firefly reporter light, replicate 2: 8845
- Renilla control light, replicate 1: 2169
- Renilla control light, replicate 2: 1293
- call: inactive

Nna1 [DRSC18993]
- firefly reporter light, replicate 1: 4452
- Renilla control light, replicate 1: 698
- call: inactive

Nna1 [DRSC19404]
- firefly reporter light, replicate 1: 3602
- firefly reporter light, replicate 2: 6557
- Renilla control light, replicate 1: 1041
- Renilla control light, replicate 2: 2401
- call: inactive

CG14538 (retired record) [DRSC02396]
- firefly reporter light, replicate 1: 3285
- firefly reporter light, replicate 2: 7667
- Renilla control light, replicate 1: 1325
- Renilla control light, replicate 2: 4157
- call: inactive

Cad86C [DRSC15587]
- firefly reporter light, replicate 1: 19476
- Renilla control light, replicate 1: 6441
- call: inactive

Cad86C [DRSC15611]
- firefly reporter light, replicate 1: 10928
- Renilla control light, replicate 1: 3280
- call: inactive

stac [DRSC13693]
- firefly reporter light, replicate 1: 2897
- Renilla control light, replicate 1: 1117
- call: inactive

stac [DRSC14392]
- firefly reporter light, replicate 1: 21920
- Renilla control light, replicate 1: 12885
- call: inactive

stac [DRSC22197]
- firefly reporter light, replicate 1: 5.64e5
- firefly reporter light, replicate 2: 8.15e5
- Renilla control light, replicate 1: 2.53e5
- Renilla control light, replicate 2: 3.58e5
- call: inactive

2 entries already listed, sorted by “firefly reporter light, replicate 1”, low to high.
Rpn2 [DRSC16839]
- firefly reporter light, replicate 1: 1465
- firefly reporter light, replicate 2: 3206
- Renilla control light, replicate 1: 475
- Renilla control light, replicate 2: 1273
- call: inactive

Larp7 [DRSC18798]
- firefly reporter light, replicate 1: 13718
- Renilla control light, replicate 1: 8681
- call: inactive
